This note sets out measurements from PubChem BioAssay AID248 (DTP/NCI, 2004).

The list does not hold the whole screen: it gathers tests that were run many times, whatever their T/C, doses with no T/C, and many T/C values between a quarter and a half above the control. Further doses and runs are listed elsewhere. T/C is the treated group as % of the vehicle group. Some entries give survivors of the animals treated and no T/C: the source files T/C as zero there, which appears to mark a toxic dose or a test without result, not a measured value. Some survivor counts are full or nearly so, which does not show that the dose was tolerated: the source hardly ever lists a survival T/C far under the control, and the zero likely stands for such cases as well. Counts of survivors are from the toxicity check (mostly the fifth day) where no day follows; animals may have died later. Schedules are NCI's codes, read here as Q, the interval in days (D) or hours (H), X, the number of doses. Some schedules carry Z or #; the key to these is not given. Some molecules as drawn cover several salts, stereoisomers or complexes of the source; a dose is that of the sample tested. For survival time, the PubChem record calls one and a half times the control and up active, and a quarter to a half above the control has no call in these data; cut-offs in other NCI protocols can differ. Some T/C values are followed by the survivors on the day toxicity was checked, most often the fifth; where none is given, no animal had died by that day. Some doses were run more than once; the results are listed from low to high.

For this assay, the system named is L1210 leukemia ip in BDF1 mice, survival T/C. Kind of assay: NCI In Vivo Anticancer Drug Screen. Data for tumor model L1210 Leukemia (intraperitoneal) in B6D2F1 (BDF1) mice. The conditions noted are these: T/C endpoint: mean survival time, higher T/C = longer survival.
[1] abbreviates: dose: 400.0 mg/kg/injection, schedule: Q01DX001 (ip), vehicle: saline.
Where [2] appears, read: dose: 100.0 mg/kg/injection, schedule: Q04DX003 (ip), vehicle: saline with Tween-80.
[3] abbreviates: dose: 200.0 mg/kg/injection, schedule: Q04DX003 (ip), vehicle: saline with Tween-80.
Setting [4] is: dose: 400.0 mg/kg/injection, schedule: Q04DX003 (ip), vehicle: saline with Tween-80.
[5] abbreviates: dose: 400.0 mg/kg/injection, schedule: Q01DX009 (ip), vehicle: saline with Tween-80.
The mark [6] stands for this setting: dose: 200.0 mg/kg/injection, schedule: Q01DX009 (ip), vehicle: saline with Tween-80.
The mark [7] stands for this setting: dose: 400.0 mg/kg/injection, schedule: Q01DX001 (ip), vehicle: saline with Tween-80.
[8] abbreviates: dose: 300.0 mg/kg/injection, schedule: Q01DX001 (ip), vehicle: saline.
Setting [9] is: dose: 400.0 mg/kg/injection, schedule: Q01DX009 (ip), vehicle: Klucel (hydroxypropylcellulose) (HPC).
The mark [10] stands for this setting: dose: 200.0 mg/kg/injection, schedule: Q01DX001 (ip), vehicle: carboxymethylcellulose (CMC).
Setting [11] is: dose: 400.0 mg/kg/injection, schedule: Q01DX001 (ip), vehicle: carboxymethylcellulose (CMC).
Setting [12] is: dose: 200.0 mg/kg/injection, schedule: Q01DX009 (ip), vehicle: saline.
The mark [13] stands for this setting: dose: 25.0 mg/kg/injection, schedule: Q01DX009 (ip), vehicle: saline with Tween-80.

As to `CC(=O)Oc1c(OC(C)=O)c(C=O)c2c(OC(C)=O)c(-c3c(C)cc4c(C(C)C)c(OC(C)=O)c(OC(C)=O)c(C=O)c4c3OC(C)=O)c(C)cc2c1C(C)C`, the survivor count (dose: 50.0 mg/kg/injection, schedule: Q01DX009 (ip), vehicle: Klucel (hydroxypropylcellulose) (HPC)) is reported as 4 of 6; the survivor count (dose: 100.0 mg/kg/injection, schedule: Q01DX009 (ip), vehicle: Klucel (hydroxypropylcellulose) (HPC)) was 2 of 6; the survivor count (dose: 200.0 mg/kg/injection, schedule: Q04DX003 (ip), vehicle: Klucel (hydroxypropylcellulose) (HPC)) is 4 of 6; the survivor count (dose: 400.0 mg/kg/injection, schedule: Q04DX003 (ip), vehicle: Klucel (hydroxypropylcellulose) (HPC)) is 0 of 6.
As for `CSc1n[nH]c(=O)nc1SC`, the survivor count under setting [1] is on record as 2 of 6.
For `COc1cc2c(cc1OC)C1C(=CCC3c4cc(OC)c(OC)cc4CC[N+]31C)C=C2` (centres undefined), the survivor count is, setting by setting: under setting [2], 1 of 6; under setting [3], 0 of 6; under setting [4], 0 of 6.
Regarding `O=C(CCl)NC(CO)C(=O)O` (centres undefined), the survivor count under setting [5] is listed as 0 of 6 and the survivor count under setting [4] is 6 of 6.
On to `CN1CCN(C(=O)NCCCl)CC1`, for which the survivor count reads like this: under setting [2], 0 of 6; under setting [3], 0 of 6; under setting [4], 0 of 6.
On to `C1=C(c2ccccc2)CC(/C=C/c2ccccc2)(c2ccccc2)C1c1ccccc1` (centres undefined), for which the survivor count reads like this: under setting [6], 6 of 6; under setting [5], 6 of 6.
Turning to `O=C(CC=C(c1ccccc1)c1ccccc1)Nc1ccccc1`, the survivor count under setting [7] is recorded as 3 of 3.
Turning to `NC(N)=N/N=C/c1cc(Br)ccc1O`, under setting [8], the survivor count is given as 0 of 6.
With `c1ccc(COc2ccnc(SCc3ccccc3)n2)cc1`, the survivor count under setting [9] is on record as 6 of 6.
As to `Clc1ccc2c(OCCN3CC3)ccnc2c1`, the survivor count runs as follows: under setting [10], 1 of 6; under setting [11], 0 of 6.
Take `CN=C(c1ccc(NC(=O)c2cccc(C(=O)Nc3ccc(C(=NC)N(C)C)cc3)c2)cc1)N(C)C`: the survivor count is on record as 0 of 6 (dose: 15.0 mg/kg/injection, schedule: Q01DX Z (ip), vehicle: saline); 0 of 6 (dose: 30.0 mg/kg/injection, schedule: Q01DX Z (ip), vehicle: saline); 0 of 6 (dose: 60.0 mg/kg/injection, schedule: Q01DX Z (ip), vehicle: saline); 0 of 6 (dose: 120.0 mg/kg/injection, schedule: Q01DX Z (ip), vehicle: saline).
Take `Nc1nc(N)c(N)c(N=O)n1`: the survivor count (dose: 200.0 mg/kg/injection, schedule: Q01DX Z (ip), vehicle: methylcellulose (MC)) is given as 6 of 6.
As for `O=[N+]([O-])c1cccc(SNc2cccc(Cl)c2)c1`, the survivor count runs as follows: under setting [6], 6 of 6; under setting [5], 0 of 5.
Consider `O=C(NNCc1ccccc1)c1ccccn1`, for which, under “dose: 200.0 mg/kg/injection, schedule: Q01DX009 (ip), vehicle: Klucel (hydroxypropylcellulose) (HPC)”, the survivor count is 0 of 6.
As to `CC1(C)CN1P(=O)(Oc1ccccc1)N1CC1(C)C` (centres undefined), the T/C reads like this: (dose: 100.0 mg/kg/injection, schedule: Q01DX001 (ip), vehicle: carboxymethylcellulose (CMC)) 126 % of control; (dose: 133.0 mg/kg/injection, schedule: Q01DX001 (ip), vehicle: carboxymethylcellulose (CMC)) 134 % of control; under setting [10], 132 and 142 % of control [5 of 6 alive]. The survivor count (dose: 300.0 mg/kg/injection, schedule: Q01DX001 (ip), vehicle: carboxymethylcellulose (CMC)) was 0 of 6 and the survivor count under setting [11] is on record as 0 of 6.
Regarding `NC(=S)c1cccc(OCc2ccccc2)c1`, under setting [5], the survivor count is given as 3 of 6.
Take `CC(C)CN(CC(C)C)C(=O)CCl`: the survivor count is, setting by setting: under setting [10], 1 of 4; under setting [11], 0 of 4.
`Cc1c2ccncc2cc2c3ccccc3n(CC3CO3)c12` (centres undefined): the T/C reads like this: (dose: 37.5 mg/kg/injection, schedule: Q04DX003 (ip), vehicle: Klucel (hydroxypropylcellulose) (HPC)) 128 % of control; (dose: 150.0 mg/kg/injection, schedule: Q04DX003 (ip), vehicle: Klucel (hydroxypropylcellulose) (HPC)) 126 % of control.
In the case of `CCOCN1CCCC1`, the survivor count reads like this: under setting [3], 4 of 6; under setting [7], 0 of 6.
Consider `N#CSCc1ccc(Cl)cc1`, for which the survivor count is 6 of 6 (dose: 50.0 mg/kg/injection, schedule: Q01DX009 (ip), vehicle: saline with Tween-80) and 0 of 6 (dose: 100.0 mg/kg/injection, schedule: Q01DX009 (ip), vehicle: saline with Tween-80).
Take `Oc1cccc(C(c2ccccc2)c2ccccc2)c1`: the T/C under setting [7] was 127 % of control [2 of 3 alive].
Regarding `N#CCC(N)C(=O)O` (centres undefined), under setting [1], the survivor count is recorded as 2 of 4.
Consider `CN(C)C(=S)[S][Sn]([CH3])([CH3])[CH3]`, for which the survivor count by setting is: (dose: 6.25 mg/kg/injection, schedule: Q01DX009 (ip), vehicle: saline) 0 of 3; (dose: 12.5 mg/kg/injection, schedule: Q01DX009 (ip), vehicle: saline) 0 of 3; (dose: 25.0 mg/kg/injection, schedule: Q01DX009 (ip), vehicle: saline) 0 of 3; (dose: 100.0 mg/kg/injection, schedule: Q01DX009 (ip), vehicle: saline) 0 of 3; under setting [12], 0 of 3; (dose: 400.0 mg/kg/injection, schedule: Q01DX009 (ip), vehicle: saline) 0 of 3.
In the case of `Cc1c([N+](=O)[O-])cc(C(C)(C)C)c(O)c1[N+](=O)[O-]`, the survivor count under setting [13] is listed as 0 of 6; the survivor count (dose: 50.0 mg/kg/injection, schedule: Q04DX002 (ip), vehicle: Klucel (hydroxypropylcellulose) (HPC)) is 1 of 3; the survivor count (dose: 50.0 mg/kg/injection, schedule: Q04DX002 (ip), vehicle: saline with Tween-80) is 0 of 3; the survivor count (dose: 100.0 mg/kg/injection, schedule: Q04DX002 (ip), vehicle: Klucel (hydroxypropylcellulose) (HPC)) is reported as 0 of 3; the survivor count (dose: 100.0 mg/kg/injection, schedule: Q04DX002 (ip), vehicle: saline with Tween-80) was 0 of 3; the survivor count (dose: 200.0 mg/kg/injection, schedule: Q04DX002 (ip), vehicle: Klucel (hydroxypropylcellulose) (HPC)) is on record as 0 of 3. In addition, the survivor count (dose: 200.0 mg/kg/injection, schedule: Q04DX002 (ip), vehicle: saline with Tween-80) is listed as 0 of 3; the survivor count (dose: 400.0 mg/kg/injection, schedule: Q04DX002 (ip), vehicle: Klucel (hydroxypropylcellulose) (HPC)) was 0 of 3; the survivor count (dose: 400.0 mg/kg/injection, schedule: Q04DX002 (ip), vehicle: saline with Tween-80) is on record as 0 of 3.
For the compound `COC(OC)c1[nH]c(=S)[nH]c(=O)c1Cc1cccc(Cl)c1`, under setting [12], the survivor count is on record as 6 of 6.
For the compound `NC(=S)N/N=C\c1ccccn1`, the T/C was 138 % of control (dose: 5.3 mg/kg/injection, schedule: Q01DX009 (ip), vehicle: saline with Tween-80) and 136 % of control (dose: 12.5 mg/kg/injection, schedule: Q01DX009 (ip), vehicle: saline with Tween-80). The survivor count under setting [13] was 4 of 6.
With `C=CCSc1nccc(=O)[nH]1`, the survivor count under setting [9] is 2 of 6.
With `O=C1NC(CCCl)C(=O)NC1CCCl` (centres undefined), the survivor count under setting [11] is given as 2 of 4.
As to `CN(C)CSc1ccccc1`, the survivor count is, setting by setting: (dose: 100.0 mg/kg/injection, schedule: Q01DX001 (ip), vehicle: saline) 1 of 4; (dose: 200.0 mg/kg/injection, schedule: Q01DX001 (ip), vehicle: saline) 0 of 4; under setting [1], 0 of 4.
In the case of `NC(N)=NC(N)=Nc1ccccc1CS`, the survivor count under setting [8] was 0 of 6.
